Test results as given in PubChem BioAssay AID445 (National Center for Advancing Translational Sciences (NCATS), 2006).
Some of the results follow. These are further read-outs of the screen, such as a control signal, another cell line or another target. No call is given for them. Most of these compounds were active or inconclusive in the main read-out, so they are no random draw. Potencies come from curve fits of mixed quality, noted in brackets.

Experiment: IkB Signaling
Details: ABC-DLBCL IkBa-CBG/CBR dual luciferase ratio (green luciferase fused to IkBa over red control in OCI-Ly3 lymphoma cells), 4 h; measured here: control luc red channel unless noted
Outline: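 Luminescence ratio of IκBα-fused green versus native red beetle luciferase in OCI-Ly3 cells, 4 h post-doxycycline with compound; red signal alone, scaled from basal (0%) to zero light (-100%), flagged nonspecific or cytotoxic effects.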

| Compound | AC50 |
| --- | --- |
| COc1ccc(-c2noc(CN3CCN(c4ccccc4OC)CC3)n2)cc1OC | 39.8 µM [falling, single point] |
| Cn1c(SCC(=O)Nc2nc3ccccc3s2)ncc(C(=O)Nc2ccccc2)c1=O | 5.01 µM [falling, single point] |
| COc1cccc(CNC(=O)CN2C(=O)N(c3ccc(C)cc3C)S(=O)(=O)c3ccccc32)c1OC | 39.8 µM [falling, single point] |
| COc1ccc(C)cc1-n1cnc2cc(C(=O)NC3CCCCCC3)ccc21 | 15.8 µM [falling, partial curve] |
| O=C(NCCc1ccccc1)c1cc(-c2ccco2)on1 | 0.0251 µM [rising, full curve, poor fit] |
| O=C(O)c1c(-c2ccccc2)oc2ccc(OCc3c(F)cccc3Cl)cc12 | 15.8 µM [falling, partial curve] |
| Cn1c(SC2=CS(=O)(=O)c3ccccc32)nc2ccccc21 | 6.31 µM [falling, partial curve] |
| COc1ccc(-c2nc3cc(C)ccn3c2NC(=O)c2cccc(F)c2)cc1 | 1 µM [falling, partial curve] |
| COc1ccc(C)cc1NC(=O)c1cnc2ccc(C)cn2c1=O | 3.16 µM [rising, partial curve, poor fit] |
| Cc1ccc(OCC(=O)NCC(c2ccc(Cl)cc2)N2CCOCC2)cc1C (stereo not given) | 25.1 µM [falling, partial curve, poor fit] |
| O=C(CCCCn1c(=O)c2ccccc2n(Cc2cccc(F)c2)c1=O)NCc1ccc2c(c1)OCO2 | 0.316 µM [rising, full curve, poor fit] |
| Cc1cccc(Nc2c(-c3ccsc3)nc3nc(C)cc(C)n23)c1 | 31.6 µM [falling, single point] |
| O=C(O)c1ccc2nc(-c3cc4cc(Cl)ccc4oc3=O)[nH]c2c1 | 0.1 µM [falling, full curve] |
| Cc1ccc(-c2nc3c4ccccc4n(CC(=O)NCc4ccc(F)cc4)c(=O)n3n2)cc1 | 39.8 µM [rising, single point] |
| O=C(CSc1nc(-c2ccccc2F)nc2cc(=O)[nH]n12)Nc1cccc(C(F)(F)F)c1 | 15.8 µM [falling, partial curve] |
| O=C(Cn1cc(C(=O)COc2ccccc2)c2ccccc21)NCc1ccco1 | 15.8 µM [falling, partial curve] |
| Cc1cc(C)cc(OCCCn2c(-c3ccc(Cl)cc3)nc3ccccc3c2=O)c1 | 39.8 µM [falling, single point] |
| COC(=O)c1sc(-c2ccccc2)cc1NC(=O)Nc1ccc(F)cc1 | 15.8 µM [falling, single point] |
| COc1ccc(Cc2nn3c(-c4cc(OC)c(OC)c(OC)c4)nnc3s2)cc1 | 10 µM [falling, partial curve] |
| Cc1cc(C)cc(NC(=O)C2CCCN2S(=O)(=O)c2ccc3nc(-c4ccccc4)[nH]c3c2)c1 (stereo not given) | 10 µM [falling, partial curve] |

2 successive compounds already listed, quoted:

| Compound | AC50 |
| --- | --- |
| COc1ccc(-c2noc(CN3CCN(c4ccccc4OC)CC3)n2)cc1OC | 39.8 µM [falling, single point] |
| Cn1c(SCC(=O)Nc2nc3ccccc3s2)ncc(C(=O)Nc2ccccc2)c1=O | 5.01 µM [falling, single point] |

(listing goes on)

| Compound | AC50 |
| --- | --- |
| O=C(O)CC(NC(=O)c1ccccc1NC(=O)c1ccccc1)C(=O)O (stereo not given) | 5.01 µM [falling, partial curve] |
| CCC1Oc2ccccc2N(CC(=O)NCc2cc(OC)ccc2OC)C1=O (stereo not given) | 10 µM [falling, partial curve] |
| O=c1[nH]c2ccccc2n1CCCSCCCn1c(=O)[nH]c2ccccc21 | 10 µM [falling, partial curve] |
| O=C(Nc1nc2ccccc2n1Cc1ccccc1)c1ccco1 | 39.8 µM [rising, single point] [measured here: IkB-luc green channel] |
| O=C(Oc1cccc2cccnc12)c1cccs1 | 20 µM [rising, partial curve] [measured here: IkB-luc green channel] |
| COc1cccc(CNCc2cccn2-c2nnc(N3CCN(c4ccccc4)CC3)s2)c1 | 20 µM [falling, single point] |
| COc1ccc(-c2[nH]ncc2C(=O)NCc2cccc(OC)c2)cc1 | 20 µM [falling, single point] |
| CCOc1cccc2cc(-c3cn4c(n3)sc3ccccc34)c(=O)oc12 | 0.251 µM [falling, full curve] |
| Cc1ccsc1CN(C(=O)COc1ccc(Cl)cc1)C1CCS(=O)(=O)C1 (stereo not given) | 39.8 µM [falling, single point] |
| O=S(=O)(c1ccc2c(c1)OCCO2)N1CCC(c2nc3ccc(Cl)cc3[nH]2)CC1 | 15.8 µM [falling, partial curve] |
| O=C(CCNc1ccc(F)c(Cl)c1)c1ccco1 | 39.8 µM [falling, single point] |
| COc1ccccc1CCC(=O)Nc1nc2ccccc2[nH]1 | 0.251 µM [falling, full curve] |
| Cc1ccc(CNC(=O)CSc2nnc(C)c3c(C)n(-c4ccccc4)nc23)cc1 | 6.31 µM [falling, partial curve] |
| O=C(c1ccc(S(=O)(=O)N2CCCCC2)cc1)N1CCN(Cc2ccc3c(c2)OCO3)CC1 | 10 µM [falling, partial curve] |
| COc1ccccc1N1CCN(C(=O)C(Cc2ccccc2)NC(=O)C2CCCCC2)CC1 (stereo not given) | 25.1 µM [falling, partial curve] |
| CC1CCN(S(=O)(=O)c2ccc3c(ccc(=O)n3CC(=O)NCc3ccccc3Cl)c2)CC1 | 39.8 µM [falling, partial curve, poor fit] |
| Cc1cc(OCC(=O)NC(Cc2c[nH]c3ccccc23)C(=O)O)ccc1Cl (stereo not given) | 39.8 µM [falling, partial curve, poor fit] |
| CCOC(=O)c1[nH]c(C)c(CCC(=O)Nc2ccccc2C(=O)OC)c1C | 39.8 µM [falling, single point] |
| CCc1nn(CC(=O)NCCc2ccc(Cl)cc2)c(=O)c2cc3ccccc3n12 | 10 µM [falling, partial curve] |
| Cc1ccc(CNC(=O)c2ccc3c(c2)N(Cc2ccccc2Cl)C(=O)CS3)cc1 | 10 µM [falling, partial curve] |

A second format for 2 compounds above.
COc1ccccc1CCC(=O)Nc1nc2ccccc2[nH]1
  AC50: 0.251 µM [falling, full curve]
Cc1ccc(CNC(=O)CSc2nnc(C)c3c(C)n(-c4ccccc4)nc23)cc1
  AC50: 6.31 µM [falling, partial curve]
